Source: ChEMBL document CHEMBL3988442, “University of Dundee, Small-Polar-MMV Screening Library” (2021).

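Whole-cell assay for inhibitors of Mycobacterium tuberculosis growth, labelled Cornell in the record; the read-out is not stated. The concentration is filed as 10 mM, unlikely as a test dose, so the dose is not known. Higher means stronger inhibition (inferred from two other growth screens of the library). Of about 53,000 compounds tested this way, about 900 (1.7%) reached 50% or more in at least one test.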

Each number is a percent effect as filed.
The record does not define 0% and 100%; most values in the screen are far below 50% and negative numbers occur (in some assays of this library far below -100).
This is an unselected part of the compounds tested.

For CC(C)(C)CC(=O)Nc1cnn(-c2ccccc2S(C)(=O)=O)c1 the result was 20.43%.
For CN(Cc1ncc(C(C)(C)C)o1)CC1CCCN1c1cccnn1 (stereo not shown) the result was -22.47%.
For CNc1nnc(SCc2nnc(C(C)(C)C)o2)s1 the result was -11.57%.
For COC(=O)Cn1ccc(NS(=O)(=O)c2ccc3c(c2)CCC3)n1 the result was -1.96%.
For Cc1nc(C)n(CC(=O)N2CCc3ncc(Cl)cc3C2)n1 the result was -14.47%.
For CCOCC1CN(S(=O)(=O)N(C)C)Cc2cnn(C)c21.O=C(O)C(F)(F)F (stereo not shown) the result was -23.7%.
For CN(Cc1noc(C2CC2)n1)C1CCCN(c2cccnn2)C1 (stereo not shown) the result was -19.19%.
For CCN(CC)Cc1cc(=O)n2c(n1)CN(S(=O)(=O)C1CC1)CCC2.O=C(O)C(F)(F)F the result was 2.546%.
For Cc1ccc(C(=O)N2CC(=O)N(Cc3cccs3)CC(O)C2)cc1 (stereo not shown) the result was 11.34%.
For O=C(Cc1ccc(S(=O)(=O)C(F)F)cc1)N1CCC1 the result was -15.06%.
For NC(=O)C1CCCN1Cc1cccc(NC(=O)c2cc(Cl)cc(Cl)c2)c1 (stereo not shown) the result was -12.7%.
For O=C(O)C(F)(F)F.O=C(O)C(F)(F)F.[H][C@@]12C[C@@H](Oc3cncnc3)CN1CCN(Cc1ccccn1)C2 the result was -0.307%.
For Cc1c(C(=O)NCC(C)C)nnn1-c1cccc2c1CCN(C)C2 the result was -7.646%.
For O=C(CCC1CCCO1)NCc1ccccc1Cn1cncn1 (stereo not shown) the result was -36.27%.
For [H][C@]12CN(Cc3ccc(F)cc3)C[C@@]1([H])OCCN(S(C)(=O)=O)C2 the result was 10.61%.
For CC1(C)[C@H](Cc2cc(CN3CCOCC3)on2)C[C@@H]1NC(=O)C1CCC1 the result was -26.37%.
For O=C(O)C(F)(F)F.[H][C@]12CCN(CC(C)C)CC[C@@]1([H])S(=O)(=O)CCN2C(=O)c1ccccc1 the result was 0.539%.
For CN(C)C(=O)CS(=O)(=O)Cc1cc(Cl)c2c(c1)OCCO2 the result was -13.3%.
For COC(=O)[C@@H]1Cc2ncn(C)c2CN1S(=O)(=O)c1ccc(Cl)cc1 the result was -2.567%.
For CCS(=O)(=O)N1CCN(C(C)c2ccccc2OC)CC1 (stereo not shown) the result was -7.213%.
For COCC(=O)N1CCC2(CCN(Cc3cccnc3)C2)CC1.O=C(O)C(F)(F)F.O=C(O)C(F)(F)F the result was 29%.
For COCCc1noc(CN2CCc3nn(C(C)C)c(=O)cc3C2)n1 the result was -13.12%.
For NC(=O)C(CNC(=O)Cc1ccsc1)Cc1ccc(F)cc1 (stereo not shown) the result was 22.58%.
For CCOc1cc(C(=O)N2CCCC(c3nc(C)c(C)s3)C2)ccn1 (stereo not shown) the result was 2.015%.
For CCc1nc2c(N3CCCC(c4nccn4CCOC)C3)ncnc2o1 (stereo not shown) the result was -6.569%.
For c1nc(-c2nc(C3CCOC3)no2)cs1 (stereo not shown) the result was -30.96%.
For CC1CCN(Cn2nc(-c3ccc(F)cc3)oc2=O)CC1 the result was -14.18%.
For Cn1ncc(C(=O)O)c1C(=O)Nc1nc2ccccc2s1 the result was -26.91%.
For Cc1noc(C)c1CN1C[C@@H](NS(=O)(=O)N(C)C)[C@H](C(C)C)C1 the result was 30.65%.
For O=C(c1cnc(C2CC2)nc1)N1CCCC(c2nccs2)C1 (stereo not shown) the result was -29.48%.
For CN1CCN(c2ccccc2CNC(=O)CSC(F)(F)F)CC1 the result was 14.17%.
For CS(=O)(=O)c1ccc(Cl)c(NC(=O)NCCC2=CCCCC2)c1 the result was 11.37%.
For O=C(CCc1cc(Cl)no1)N1CCN(CCn2cncn2)CC1 the result was 1.517%.
For Cc1nn(Cn2ccc(C(=O)N3CCCC3)n2)c(C)c1Cl the result was 35.41%.
For CC(C)CN1CCC2(CCCNC2)C1=O.Cl (stereo not shown) the result was 33.77%.
For Cl.Cl.Cn1ccc(CN2CCOCC23CCNCC3)n1 the result was -16.73%.
For CN1CCN(CCOc2ccc(NC(=O)c3ccoc3)cc2)CC1 the result was 0.319%.
For COCCCC1(CO)CCCN(Cc2nccs2)C1 (stereo not shown) the result was -0.5023%.
For CC(=O)NCc1ccc(C(=O)N2CCCC(n3cncn3)C2)o1 (stereo not shown) the result was -63.44%.
For Cc1noc(C)c1CN1CCc2ncnc(-c3ccccc3)c2CC1.O=C(O)C(F)(F)F the result was -7.805%.
For CC(C)c1cc(C(=O)NCCn2nc3ccccn3c2=O)n[nH]1 the result was -6.854%.
For O=C(NCC1(c2ccc(F)cc2)CCC1)N1CCC2(CCOCC2)C1 the result was -32.85%.
For CC(C)n1nccc1NC(=O)NCCc1nc2ccc(F)cc2n1C the result was 11.09%.
For c1cncc(C[C@@H]2CC[C@H](CN3CCCOCC3)O2)c1 the result was 15.58%.
For CCn1cncc1-c1nc2c([nH]1)CC(C)(C)CNC2=O the result was -14.09%.
For c1cncc(CN2CCCn3nnc(CN4CCCCC4)c3C2)c1 the result was -21.57%.
For COCC(C)(CCO)NC(=O)Nc1cccc(F)c1C (stereo not shown) the result was -38.24%.
For CC(C)n1cnnc1CCNCc1cn(CCC(N)=O)c2ccccc12 the result was 3.65%.
For COCCC(=O)N1CCC(c2cc(O)n(C)n2)C1 (stereo not shown) the result was -6.031%.
For CCN(CC(F)(F)F)C(=O)C1CCCN(Cc2ccno2)C1 (stereo not shown) the result was 6.44%.
For Cl.Cl.c1ccc(-c2cnc3n2CCNC32CCNCC2)cc1 the result was -68.01%.
For COCC1c2c(cnn2C)CCN1Cc1cccc(C)c1.O=C(O)C(F)(F)F.O=C(O)C(F)(F)F (stereo not shown) the result was -0.8439%.
For CCC(CO)N(Cc1cccc(-n2cccn2)c1)Cc1cccs1 (stereo not shown) the result was 10.69%.
For CC(C)c1nsc(N2CCS(=O)(=O)CC2)n1 the result was 13.03%.
For COc1cccc2[nH]cc(CCNC(=O)N3CCCC3CO)c12 (stereo not shown) the result was 17.58%.
For Cc1ncsc1CCC(=O)N1CCCC[C@H](N(C)C)C1 the result was 11.04%.

For reference, 6 entries once more:

Compound	Percent Effect
CC1(C)[C@H](Cc2cc(CN3CCOCC3)on2)C[C@@H]1NC(=O)C1CCC1	-26.37%
CC(C)c1nsc(N2CCS(=O)(=O)CC2)n1	13.03%
O=C(c1cnc(C2CC2)nc1)N1CCCC(c2nccs2)C1 (stereo not shown)	-29.48%
CN1CCN(c2ccccc2CNC(=O)CSC(F)(F)F)CC1	14.17%
COC(=O)Cn1ccc(NS(=O)(=O)c2ccc3c(c2)CCC3)n1	-1.96%
COCCc1noc(CN2CCc3nn(C(C)C)c(=O)cc3C2)n1	-13.12%